Some of the results follow. Construct or isoform of the protein are uncertain.
molecular target: T1, ELF2 (UniProt Q15723); assay: DAPPL (digital affinity profiling via proximity ligation, sequencing); conditions: 10 mM Tris-HCl pH 7.5, 50 mM NaCl, 1 mM DTT, 4% glycerol, room temperature, 30 min; GST-TFs on glutathione beads, 16-mer random dsDNA library, 0.1% …; high values mean tight binding; double strand, one strand shown; scale: fold enrichment (6-mer frequency, TF over GST control)
T1 sequence: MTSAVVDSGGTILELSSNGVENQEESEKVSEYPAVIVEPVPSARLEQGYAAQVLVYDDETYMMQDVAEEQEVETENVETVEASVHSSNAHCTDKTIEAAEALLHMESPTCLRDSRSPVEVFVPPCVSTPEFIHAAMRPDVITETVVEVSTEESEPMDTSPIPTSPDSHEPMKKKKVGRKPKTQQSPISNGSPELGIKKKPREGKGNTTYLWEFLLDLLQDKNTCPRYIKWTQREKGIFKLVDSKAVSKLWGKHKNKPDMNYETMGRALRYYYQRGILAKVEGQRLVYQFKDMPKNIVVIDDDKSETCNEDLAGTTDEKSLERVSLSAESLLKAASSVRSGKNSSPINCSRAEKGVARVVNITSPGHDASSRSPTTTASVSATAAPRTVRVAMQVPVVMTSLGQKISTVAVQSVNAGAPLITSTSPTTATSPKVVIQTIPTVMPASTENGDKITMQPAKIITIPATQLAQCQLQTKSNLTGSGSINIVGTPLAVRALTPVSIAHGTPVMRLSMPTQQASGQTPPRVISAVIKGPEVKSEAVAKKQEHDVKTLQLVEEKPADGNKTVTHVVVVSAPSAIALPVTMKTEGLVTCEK

| Sequence | binding signal |
| --- | --- |
| CTATTC | 1.32 |
| AAGTCC | 1.41 |
| GTATTA | 1.1 |
| TCTTCT | 1.21 |
| GGCTCT | 1.28 |
| TCTCAA | 1.18 |
| ATACCA | 1.02 |
| CCCCAT | 1.25 |
| GTTCTT | 1.22 |
| ACATTC | 1.27 |
| AACCTT | 1.22 |
| TACCCT | 1.27 |
| CTTGTT | 1.22 |
| TACTAC | 1.35 |
| CGTATT | 1.19 |
| CGAGCT | 1.06 |
| CTGACT | 1.32 |
| CTTCTA | 1.37 |
| ATGTAA | 1.24 |
| ATACAA | 1.09 |

| Sequence | binding signal |
| --- | --- |
| CTGCCG | 1.41 |
| TGGATG | 1.34 |
| CTTGAC | 1.13 |
| CTCTGT | 1.4 |
| TGTACT | 1.33 |
| ATAACT | 1.26 |
| ATGACT | 1.35 |
| CATGCT | 1.17 |
| AAGAAT | 1.2 |
| GTTTCG | 1.24 |
| CTAAAC | 1.15 |
| TTGGTG | 1.24 |
| ATCTGA | 1.04 |
| ATCTGT | 1.2 |
| GCCTTG | 1.18 |
| CACTTG | 1.23 |
| TATACT | 1.37 |
| CTTGGG | 1.13 |
| TGTAAA | 1.12 |

Shown comma-delimited: entries from further up
Sequence,binding signal
AAGAAT,1.2
GTTTCG,1.24
CTAAAC,1.15

Source: article PMC7862700
